Some of the results follow. Residues, ends and D or L forms follow the SMILES beside them. *: point of attachment. Cbz = O=C(OCc1ccccc1)*
How the values were obtained:
Test in all cases: log2 fold change, soluble protein after heating vs DMSO (PISA); higher = thermal stabilisation; K562 cells, 10 uM, 30 min; active = over 0.2 and 3.5 SD of the protein, either way, in both replicates (recomputed)
IRAK-1-4 Inhibitor I = compound: C1COCCN1CCN2C3=CC=CC=C3N=C2NC(=O)C4=CC(=CC=C4)[N+](=O)[O-] [IRAK-1-4 Inhibitor I]
How it was run: (§1)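 Thermal stability values are relative to control samples and come from duplicates. They are expressed as log2 fold changes. For measurement, K562 cells (2×10^6 cells/mL) received 10 μM compound for 30 min, and aliquots were heated for 3 min over 48°C-58°C, pooled, and extracted at 4°C in PBS with 0.5% NP-40. Soluble protein, the supernatant after 21,000xg for 90 min, was quantified by TMTpro 16plex LC-MS/MS with equalised channel sums.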

Sequences of proteins named here, by UniProt entry; tags and fusion partners are left off. A change or cut given only in a name is not applied to a line headed by its entry.
UniProt O95376: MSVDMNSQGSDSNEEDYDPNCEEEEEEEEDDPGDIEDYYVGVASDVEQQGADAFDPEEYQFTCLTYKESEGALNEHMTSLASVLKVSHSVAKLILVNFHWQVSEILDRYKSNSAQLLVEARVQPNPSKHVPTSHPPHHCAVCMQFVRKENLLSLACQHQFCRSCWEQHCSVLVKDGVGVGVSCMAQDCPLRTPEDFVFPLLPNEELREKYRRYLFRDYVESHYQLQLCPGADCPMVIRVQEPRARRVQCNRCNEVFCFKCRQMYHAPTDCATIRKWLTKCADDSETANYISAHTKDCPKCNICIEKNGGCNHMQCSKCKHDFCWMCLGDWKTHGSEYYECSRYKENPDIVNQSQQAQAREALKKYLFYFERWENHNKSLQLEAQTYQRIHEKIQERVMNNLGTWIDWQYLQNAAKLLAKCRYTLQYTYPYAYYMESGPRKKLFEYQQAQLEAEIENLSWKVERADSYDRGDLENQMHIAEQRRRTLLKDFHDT
UniProt P49407: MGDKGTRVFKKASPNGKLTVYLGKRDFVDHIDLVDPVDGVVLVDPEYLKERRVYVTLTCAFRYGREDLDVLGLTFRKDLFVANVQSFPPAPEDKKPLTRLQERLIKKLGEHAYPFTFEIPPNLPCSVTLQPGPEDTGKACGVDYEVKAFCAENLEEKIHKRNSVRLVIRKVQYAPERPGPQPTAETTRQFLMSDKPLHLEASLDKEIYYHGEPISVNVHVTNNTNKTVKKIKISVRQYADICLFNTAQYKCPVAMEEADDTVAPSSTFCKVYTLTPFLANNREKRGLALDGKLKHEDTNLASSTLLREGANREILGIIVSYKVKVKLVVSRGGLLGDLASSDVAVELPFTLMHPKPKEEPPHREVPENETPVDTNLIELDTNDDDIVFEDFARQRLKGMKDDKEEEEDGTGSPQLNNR
UniProt P30049: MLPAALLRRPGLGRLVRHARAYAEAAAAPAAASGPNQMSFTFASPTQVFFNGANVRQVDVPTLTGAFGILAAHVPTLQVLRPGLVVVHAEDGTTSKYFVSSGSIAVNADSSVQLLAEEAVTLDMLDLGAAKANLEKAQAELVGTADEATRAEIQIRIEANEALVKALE
UniProt Q9H1Y0: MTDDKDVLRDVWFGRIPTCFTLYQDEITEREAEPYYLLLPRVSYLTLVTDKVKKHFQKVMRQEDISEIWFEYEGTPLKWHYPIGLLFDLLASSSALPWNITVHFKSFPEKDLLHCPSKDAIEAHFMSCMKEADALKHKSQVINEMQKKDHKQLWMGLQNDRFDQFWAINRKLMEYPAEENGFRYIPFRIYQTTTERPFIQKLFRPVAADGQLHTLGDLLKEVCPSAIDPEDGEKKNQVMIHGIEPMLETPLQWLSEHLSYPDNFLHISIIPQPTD
UniProt Q06055: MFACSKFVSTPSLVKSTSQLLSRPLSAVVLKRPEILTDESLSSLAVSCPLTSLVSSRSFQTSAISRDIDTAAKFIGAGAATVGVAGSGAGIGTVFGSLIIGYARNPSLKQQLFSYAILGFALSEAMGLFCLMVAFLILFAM
UniProt L0R819, whole entry, looked up: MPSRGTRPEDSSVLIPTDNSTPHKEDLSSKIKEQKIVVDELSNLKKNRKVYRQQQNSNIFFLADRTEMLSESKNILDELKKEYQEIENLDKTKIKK
UniProt P48047: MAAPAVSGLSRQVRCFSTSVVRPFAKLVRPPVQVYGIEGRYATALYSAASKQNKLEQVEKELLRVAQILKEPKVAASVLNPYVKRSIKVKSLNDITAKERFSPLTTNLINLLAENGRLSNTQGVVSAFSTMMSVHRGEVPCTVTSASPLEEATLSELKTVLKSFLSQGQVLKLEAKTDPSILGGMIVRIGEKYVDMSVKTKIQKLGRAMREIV
UniProt Q9NXU5: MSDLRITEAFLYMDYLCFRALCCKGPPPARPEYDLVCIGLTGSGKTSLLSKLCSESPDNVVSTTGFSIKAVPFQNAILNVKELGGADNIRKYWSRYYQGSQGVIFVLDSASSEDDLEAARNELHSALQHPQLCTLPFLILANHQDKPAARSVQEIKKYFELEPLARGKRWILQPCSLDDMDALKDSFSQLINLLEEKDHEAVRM
UniProt Q13510, whole entry, looked up: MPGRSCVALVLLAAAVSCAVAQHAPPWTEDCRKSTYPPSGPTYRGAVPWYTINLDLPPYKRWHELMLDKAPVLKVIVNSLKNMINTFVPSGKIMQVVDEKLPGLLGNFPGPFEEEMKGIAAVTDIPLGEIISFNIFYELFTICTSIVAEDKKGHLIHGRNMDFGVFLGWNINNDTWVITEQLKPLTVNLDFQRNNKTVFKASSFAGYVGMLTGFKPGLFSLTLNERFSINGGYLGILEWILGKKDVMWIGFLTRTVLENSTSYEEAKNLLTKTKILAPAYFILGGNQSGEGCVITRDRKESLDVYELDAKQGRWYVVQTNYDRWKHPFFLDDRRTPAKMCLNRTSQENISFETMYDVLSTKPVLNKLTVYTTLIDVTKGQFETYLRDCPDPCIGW
UniProt Q8IZT6: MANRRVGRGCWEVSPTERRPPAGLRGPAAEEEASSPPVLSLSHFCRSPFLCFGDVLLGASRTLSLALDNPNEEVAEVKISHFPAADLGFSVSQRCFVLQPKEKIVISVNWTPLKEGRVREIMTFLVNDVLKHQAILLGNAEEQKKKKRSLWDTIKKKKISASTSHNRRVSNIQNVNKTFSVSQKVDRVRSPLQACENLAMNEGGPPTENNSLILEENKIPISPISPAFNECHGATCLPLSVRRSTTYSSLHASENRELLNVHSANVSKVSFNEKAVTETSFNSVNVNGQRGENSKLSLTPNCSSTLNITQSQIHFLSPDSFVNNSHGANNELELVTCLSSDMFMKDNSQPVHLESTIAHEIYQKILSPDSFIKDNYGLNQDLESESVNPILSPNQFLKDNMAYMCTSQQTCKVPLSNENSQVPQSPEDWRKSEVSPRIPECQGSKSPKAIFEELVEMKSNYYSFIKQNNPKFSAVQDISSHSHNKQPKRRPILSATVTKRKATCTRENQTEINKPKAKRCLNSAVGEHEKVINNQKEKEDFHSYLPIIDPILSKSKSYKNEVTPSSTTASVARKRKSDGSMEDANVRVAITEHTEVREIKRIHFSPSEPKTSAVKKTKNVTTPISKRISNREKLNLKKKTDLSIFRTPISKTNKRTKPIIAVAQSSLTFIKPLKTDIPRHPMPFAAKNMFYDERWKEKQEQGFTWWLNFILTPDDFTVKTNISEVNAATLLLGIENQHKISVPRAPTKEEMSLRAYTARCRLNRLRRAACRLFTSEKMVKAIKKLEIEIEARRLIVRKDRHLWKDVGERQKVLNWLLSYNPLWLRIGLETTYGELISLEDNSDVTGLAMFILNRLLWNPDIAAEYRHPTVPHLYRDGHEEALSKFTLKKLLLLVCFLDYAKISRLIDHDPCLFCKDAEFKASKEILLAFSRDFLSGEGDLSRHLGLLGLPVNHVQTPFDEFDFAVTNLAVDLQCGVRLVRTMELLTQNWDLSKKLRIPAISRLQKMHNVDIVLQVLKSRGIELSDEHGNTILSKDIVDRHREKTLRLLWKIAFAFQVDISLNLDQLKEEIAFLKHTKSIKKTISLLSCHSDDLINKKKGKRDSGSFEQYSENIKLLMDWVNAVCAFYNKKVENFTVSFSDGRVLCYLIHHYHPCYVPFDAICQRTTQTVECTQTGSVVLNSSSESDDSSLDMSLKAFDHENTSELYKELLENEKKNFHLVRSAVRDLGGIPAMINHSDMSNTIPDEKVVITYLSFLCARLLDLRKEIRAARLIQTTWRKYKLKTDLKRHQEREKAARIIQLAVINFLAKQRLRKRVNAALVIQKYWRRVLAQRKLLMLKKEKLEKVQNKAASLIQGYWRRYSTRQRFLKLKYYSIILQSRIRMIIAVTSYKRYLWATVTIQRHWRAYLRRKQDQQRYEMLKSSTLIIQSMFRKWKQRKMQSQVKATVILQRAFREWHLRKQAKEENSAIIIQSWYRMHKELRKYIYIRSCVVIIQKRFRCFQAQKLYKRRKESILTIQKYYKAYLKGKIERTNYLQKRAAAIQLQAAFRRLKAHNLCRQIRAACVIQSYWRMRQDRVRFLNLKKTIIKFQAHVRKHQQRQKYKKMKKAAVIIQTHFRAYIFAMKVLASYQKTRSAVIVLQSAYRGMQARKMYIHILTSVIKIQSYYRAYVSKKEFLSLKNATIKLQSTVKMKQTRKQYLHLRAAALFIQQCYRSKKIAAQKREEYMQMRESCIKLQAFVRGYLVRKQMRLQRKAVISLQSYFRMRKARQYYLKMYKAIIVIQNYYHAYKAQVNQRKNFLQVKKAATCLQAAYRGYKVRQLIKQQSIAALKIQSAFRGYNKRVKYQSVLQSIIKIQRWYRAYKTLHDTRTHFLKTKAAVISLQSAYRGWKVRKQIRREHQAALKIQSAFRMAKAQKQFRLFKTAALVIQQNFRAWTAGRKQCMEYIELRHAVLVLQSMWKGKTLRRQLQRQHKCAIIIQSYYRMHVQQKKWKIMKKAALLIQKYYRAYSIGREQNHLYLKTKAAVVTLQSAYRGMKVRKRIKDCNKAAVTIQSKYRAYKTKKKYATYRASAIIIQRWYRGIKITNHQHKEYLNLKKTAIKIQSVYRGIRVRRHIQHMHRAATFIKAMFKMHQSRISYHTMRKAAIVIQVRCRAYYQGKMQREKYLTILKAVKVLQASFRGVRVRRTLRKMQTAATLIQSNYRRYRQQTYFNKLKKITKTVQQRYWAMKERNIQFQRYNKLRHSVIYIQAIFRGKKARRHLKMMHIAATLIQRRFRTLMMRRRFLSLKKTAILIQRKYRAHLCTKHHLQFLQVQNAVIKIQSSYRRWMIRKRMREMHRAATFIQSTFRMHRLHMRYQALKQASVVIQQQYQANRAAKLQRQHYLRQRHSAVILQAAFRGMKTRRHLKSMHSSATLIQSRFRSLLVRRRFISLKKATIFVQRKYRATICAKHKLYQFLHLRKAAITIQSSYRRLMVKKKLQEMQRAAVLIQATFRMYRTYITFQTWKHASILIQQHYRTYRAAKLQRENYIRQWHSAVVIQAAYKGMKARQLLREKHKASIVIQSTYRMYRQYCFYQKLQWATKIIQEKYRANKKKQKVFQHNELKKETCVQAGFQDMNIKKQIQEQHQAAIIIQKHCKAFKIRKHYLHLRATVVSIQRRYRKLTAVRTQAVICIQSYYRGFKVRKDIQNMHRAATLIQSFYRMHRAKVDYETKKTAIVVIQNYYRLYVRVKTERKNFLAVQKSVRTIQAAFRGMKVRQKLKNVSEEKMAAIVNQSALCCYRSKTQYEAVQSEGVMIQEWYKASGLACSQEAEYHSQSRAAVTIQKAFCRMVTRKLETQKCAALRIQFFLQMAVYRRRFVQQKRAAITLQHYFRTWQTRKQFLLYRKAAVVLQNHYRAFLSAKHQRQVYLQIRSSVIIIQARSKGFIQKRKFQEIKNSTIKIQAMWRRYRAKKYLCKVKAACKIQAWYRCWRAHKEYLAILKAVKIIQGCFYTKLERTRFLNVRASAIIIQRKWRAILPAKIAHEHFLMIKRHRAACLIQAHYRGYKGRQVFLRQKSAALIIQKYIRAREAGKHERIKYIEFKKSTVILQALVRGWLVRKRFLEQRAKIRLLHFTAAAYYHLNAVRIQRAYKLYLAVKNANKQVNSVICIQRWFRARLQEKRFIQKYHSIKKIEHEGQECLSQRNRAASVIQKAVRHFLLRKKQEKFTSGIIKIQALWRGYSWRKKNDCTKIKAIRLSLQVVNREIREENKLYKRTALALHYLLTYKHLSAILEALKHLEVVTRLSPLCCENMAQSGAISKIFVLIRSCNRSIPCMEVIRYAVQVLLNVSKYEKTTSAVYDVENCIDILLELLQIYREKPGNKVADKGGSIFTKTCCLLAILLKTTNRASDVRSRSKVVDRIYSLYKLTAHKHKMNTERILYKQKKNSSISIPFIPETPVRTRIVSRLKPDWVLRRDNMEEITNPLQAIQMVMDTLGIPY
UniProt Q7L266: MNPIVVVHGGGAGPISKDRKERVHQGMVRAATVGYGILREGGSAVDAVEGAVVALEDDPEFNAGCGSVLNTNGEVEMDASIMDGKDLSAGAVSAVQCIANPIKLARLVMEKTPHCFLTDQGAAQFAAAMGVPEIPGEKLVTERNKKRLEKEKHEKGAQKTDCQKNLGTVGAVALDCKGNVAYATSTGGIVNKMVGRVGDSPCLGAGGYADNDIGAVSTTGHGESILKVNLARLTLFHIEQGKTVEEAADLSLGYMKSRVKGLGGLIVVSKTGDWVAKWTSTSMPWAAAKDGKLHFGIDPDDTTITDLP
UniProt P24539: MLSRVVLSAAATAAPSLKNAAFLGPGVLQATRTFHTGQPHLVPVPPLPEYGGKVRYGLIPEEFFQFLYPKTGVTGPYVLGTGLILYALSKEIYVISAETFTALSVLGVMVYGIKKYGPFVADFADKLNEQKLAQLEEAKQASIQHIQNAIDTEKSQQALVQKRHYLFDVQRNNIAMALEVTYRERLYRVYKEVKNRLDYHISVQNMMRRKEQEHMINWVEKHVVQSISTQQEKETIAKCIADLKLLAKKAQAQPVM
UniProt O75964: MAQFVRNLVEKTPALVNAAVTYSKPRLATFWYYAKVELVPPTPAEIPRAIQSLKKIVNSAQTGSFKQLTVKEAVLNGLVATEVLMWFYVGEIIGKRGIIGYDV

ibrutinib = compound: C=CC(=O)N1CCC[C@@H](n2nc(-c3ccc(Oc4ccccc4)cc3)c3c(N)ncnc32)C1 [ibrutinib]
How it was run: as §1

[1] = compound: CC(=O)c1cnc2ccc(-c3cc(Cl)c(O)c(Cl)c3)nc2c1N[C@H]1CC[C@H](CN(C)C)CC1
How it was run: as §1

ralimetinib = compound: CC(C)(C)Cn1c(N)nc2ccc(-c3[nH]c(C(C)(C)C)nc3-c3ccc(F)cc3)nc21 [ralimetinib]
How it was run: as §1

[2] = compound: CC(C)(O)CC(=O)NCCn1ccc2ncnc(Nc3ccc(Oc4cccc(C(F)(F)F)c4)c(Cl)c3)c21
How it was run: as §1

[3] = compound: CC(C)C1=C2N=C(C=C(N2N=C1)NCC3=CC=CC=C3)NCCCCCCN
How it was run: as §1

[4] = compound: CC(C)C[C@@H](C=O)NC(=O)[C@H](CC(C)C)NC(=O)[C@H](CC(C)C)NC(=O)OCc1ccccc1
How it was run: as §1

pinometostat = compound: CC(C)N(C[C@H]1O[C@@H](n2cnc3c(N)ncnc32)[C@H](O)[C@@H]1O)[C@H]1C[C@@H](CCc2nc3cc(C(C)(C)C)ccc3[nH]2)C1 [pinometostat]
How it was run: as §1

[5] = compound: CC1=C(C(CC(=O)N1)C2=CC=C(C=C2)C(F)(F)F)C(=O)NC3=C(C=C4C(=C3)C=NN4)F
How it was run: as §1

[6] = compound: CC1=C(C2=C(C=C1)C(=O)C3=CC=CC=C3N2CCCN)C
How it was run: as §1

[7] = compound: CC1=C(C=C(C=C1)NC(=O)C2=CC(=CC=C2)C(C)(C)C#N)NC3=CC4=C(C=C3)N=CN(C4=O)C
How it was run: as §1

[8] = compound: CC1=C(C=C(C=C1)NC(=O)C2=CC(=CC=C2)N(C)C)NC(=O)C3=CC=C(C=C3)O
How it was run: as §1

[9] = compound: CC1=CC=C(C=C1)SC2=C3C=C(SC3=CN=C2)C(=O)N
How it was run: as §1

[10] = compound: CC1=NC(=CC=C1)C2=C(N=C(N2)C(C)(C)C)C3=CC4=NC=CN=C4C=C3
How it was run: as §1

Nexturastat A = compound: CCCCN(Cc1ccc(C(=O)NO)cc1)C(=O)Nc1ccccc1 [Nexturastat A]
How it was run: as §1

vemurafenib = compound: CCCS(=O)(=O)Nc1ccc(F)c(C(=O)c2c[nH]c3ncc(-c4ccc(Cl)cc4)cc23)c1F [vemurafenib]
How it was run: as §1

[11] = compound: CCCS(=O)(=O)Nc1ccc(F)c(C(=O)c2c[nH]c3ncc(Cl)cc23)c1F
How it was run: as §1

[12] = compound: CCCc1cc(C)[nH]c(=O)c1CNC(=O)c1cc(-c2ccnc(N3CCN(C)CC3)c2)cc2c1cnn2C(C)C
How it was run: as §1

givinostat = compound: CCN(CC)Cc1ccc2cc(COC(=O)Nc3ccc(C(=O)NO)cc3)ccc2c1 [givinostat]
How it was run: as §1

barasertib = compound: CCN(CCCOc1ccc2c(Nc3cc(CC(=O)Nc4cccc(F)c4)[nH]n3)ncnc2c1)CCOP(=O)(O)O [barasertib]
How it was run: as §1

Measured: log2 fold change

ARIH2 (UniProt O95376)
inactive: IRAK-1-4 Inhibitor I 0.032 | ibrutinib -0.01 | [1] 0.058 | ralimetinib -0.014 | [2] -0.01 | [3] 0.021 | [4] -0.036 | pinometostat -0.066 | [5] 0.019 | [6] -0.002 | [7] 0.038 | [8] 0.004 | [9] -0.036 | [10] 0.029 | Nexturastat A -0.069 | vemurafenib 0.034 | [11] 0.032 | [12] 0.036 | givinostat -0.039 | barasertib 0.036

ARRB1 (UniProt P49407)
inactive: IRAK-1-4 Inhibitor I 0.045 | ibrutinib 0.007 | [1] 0.073 | ralimetinib -0.056 | [2] -0.008 | [3] 0.003 | [4] -0.023 | pinometostat -0.016 | [5] 0.021 | [6] 0.059 | [7] -0.024 | [8] 0.005 | [9] 0.04 | [10] 0.002 | Nexturastat A -0.031 | vemurafenib -0.004 | [11] 0.004 | [12] -0.114 | givinostat -0.027 | barasertib 0.003

ATP5F1D (UniProt P30049)
inactive: IRAK-1-4 Inhibitor I 0.03 | ibrutinib -0.067 | [1] -0.084 | ralimetinib -0.115 | [2] 0 | [3] -0.024 | [4] -0.042 | pinometostat -0.011 | [5] 0.016 | [6] 0.078 | [7] -0.032 | [8] -0.056 | [9] 0.093 | [10] 0.003 | Nexturastat A -0.017 | vemurafenib -0.007 | [11] 0.005 | [12] -0.029 | givinostat -0.003 | barasertib 0.008

ARPC4 isoform 3 (UniProt P59998)
inactive: IRAK-1-4 Inhibitor I 0.001 | ibrutinib -0.028 | [1] 0.008 | ralimetinib -0.043 | [2] -0.01 | [3] 0.08 | [4] -0.024 | pinometostat -0.078 | [5] -0.011 | [6] 0.034 | [7] -0.013 | [8] 0.106 | [9] 0.002 | [10] 0.007 | Nexturastat A -0.069 | vemurafenib 0.036 | [11] 0.001 | [12] -0.054 | givinostat 0.011 | barasertib 0.003

ATG5 (UniProt Q9H1Y0)
inactive: IRAK-1-4 Inhibitor I 0.035 | ibrutinib 0.035 | [1] 0.02 | ralimetinib 0.009 | [2] -0.014 | [3] -0.07 | [4] -0.006 | pinometostat 0.014 | [5] -0.056 | [6] 0.026 | [7] 0.003 | [8] -0.025 | [9] 0.021 | [10] 0.101 | Nexturastat A -0.043 | vemurafenib 0.03 | [11] 0.048 | [12] 0.035 | givinostat 0.069 | barasertib -0.036

ATP5MC2 isoform 2 (UniProt Q06055)
inactive: IRAK-1-4 Inhibitor I 0.078 | ibrutinib -0.032 | [1] -0.086 | ralimetinib -0.094 | [2] -0.109 | [3] -0.014 | [4] -0.157 | pinometostat 0.053 | [5] -0.084 | [6] -0.005 | [7] 0.003 | [8] 0.121 | [9] -0.04 | [10] -0.119 | Nexturastat A 0.018 | vemurafenib -0.055 | [11] 0 | [12] -0.118 | givinostat -0.016 | barasertib -0.003

ASDURF (UniProt L0R819)
inactive: IRAK-1-4 Inhibitor I 0.036 | ibrutinib 0.015 | [1] 0.072 | ralimetinib 0.005 | [2] 0.023 | [3] 0.07 | [4] -0.001 | pinometostat -0.035 | [5] 0.04 | [6] -0.039 | [7] -0.059 | [8] 0.05 | [9] 0.028 | [10] -0.035 | Nexturastat A -0.003 | vemurafenib -0.026 | [11] -0.047 | [12] -0.034 | givinostat -0.02 | barasertib -0.018

ARPC1B (UniProt O15143)
inactive: IRAK-1-4 Inhibitor I -0.035 | ibrutinib 0.023 | [1] 0.087 | ralimetinib -0.008 | [2] 0.021 | [3] 0.093 | [4] 0 | pinometostat -0.053 | [5] 0.003 | [6] 0.007 | [7] -0.032 | [8] -0.018 | [9] 0.063 | [10] 0.139 | Nexturastat A 0.027 | vemurafenib 0.146 | [11] 0.193 | [12] 0.043 | givinostat -0.022 | barasertib 0.012

ATP5PO (UniProt P48047)
inactive: IRAK-1-4 Inhibitor I 0.069 | ibrutinib 0.012 | [1] 0.031 | ralimetinib 0.052 | [2] -0.011 | [3] 0.036 | [4] 0.028 | pinometostat -0.021 | [5] 0.004 | [6] 0.009 | [7] -0.02 | [8] 0.048 | [9] 0.008 | [10] 0.01 | Nexturastat A 0 | vemurafenib 0.027 | [11] -0.015 | [12] -0.018 | givinostat 0.001 | barasertib -0.004

ARL15 (UniProt Q9NXU5)
inactive: IRAK-1-4 Inhibitor I 0.075 | ibrutinib 0.041 | [1] 0.012 | ralimetinib -0.06 | [2] -0.045 | [3] 0.013 | [4] -0.022 | pinometostat -0.008 | [5] -0.001 | [6] 0.101 | [7] -0.003 | [8] -0.039 | [9] 0.042 | [10] -0.019 | Nexturastat A -0.068 | vemurafenib 0.025 | [11] 0.01 | [12] -0.043 | givinostat -0.013 | barasertib -0.015

ASAH1 isoform 2 (UniProt Q13510)
inactive: IRAK-1-4 Inhibitor I 0.055 | ibrutinib 0.05 | [1] -0.029 | ralimetinib -0.069 | [2] 0.011 | [3] 0.134 | [4] -0.023 | pinometostat 0.003 | [5] 0.007 | [6] 0.003 | [7] 0.022 | [8] 0.005 | [9] 0.041 | [10] 0.048 | Nexturastat A -0.014 | vemurafenib 0.056 | [11] 0.017 | [12] -0.112 | givinostat -0.03 | barasertib -0.052

ASPM (UniProt Q8IZT6)
inactive: IRAK-1-4 Inhibitor I -0.034 | ibrutinib -0.006 | [1] -0.012 | ralimetinib -0.001 | [2] -0.081 | [3] 0.079 | [4] 0.03 | pinometostat -0.071 | [5] -0.2 | [6] 0.083 | [7] -0.031 | [8] -0.027 | [9] -0.003 | [10] 0.021 | Nexturastat A -0.128 | vemurafenib 0.005 | [11] 0 | [12] 0.063 | givinostat -0.084 | barasertib 0.026

ASRGL1 (UniProt Q7L266)
inactive: IRAK-1-4 Inhibitor I 0.007 | ibrutinib 0.02 | [1] 0.021 | ralimetinib -0.015 | [2] -0.05 | [3] -0.036 | [4] -0.042 | pinometostat 0.02 | [5] -0.011 | [6] 0.084 | [7] 0.024 | [8] -0.019 | [9] 0.005 | [10] -0.017 | Nexturastat A -0.027 | vemurafenib -0.04 | [11] 0.014 | [12] -0.093 | givinostat 0.001 | barasertib 0.047

ATP5PB (UniProt P24539)
inactive: IRAK-1-4 Inhibitor I 0.014 | ibrutinib 0 | [1] 0.04 | ralimetinib -0.037 | [2] -0.034 | [3] 0.006 | [4] -0.066 | pinometostat -0.059 | [5] 0.019 | [6] 0.025 | [7] 0.013 | [8] -0.018 | [9] 0.01 | [10] 0.019 | Nexturastat A -0.072 | vemurafenib 0.021 | [11] -0.005 | [12] -0.087 | givinostat 0.005 | barasertib -0.007

ATP5MG (UniProt O75964)
inactive: IRAK-1-4 Inhibitor I 0 | ibrutinib 0.03 | [1] 0.038 | ralimetinib -0.18 | [2] -0.016 | [3] 0.042 | [4] 0.029 | pinometostat 0.052 | [5] 0.009 | [6] 0.069 | [7] -0.023 | [8] -0.061 | [9] -0.027 | [10] -0.086 | Nexturastat A -0.062 | vemurafenib -0.093 | [11] -0.091 | [12] -0.054 | givinostat -0.019 | barasertib 0

2 successive records out of the list so far, for reference:
ASAH1 isoform 2 (UniProt Q13510)
inactive: IRAK-1-4 Inhibitor I 0.055 | ibrutinib 0.05 | [1] -0.029 | ralimetinib -0.069 | [2] 0.011 | [3] 0.134 | [4] -0.023 | pinometostat 0.003 | [5] 0.007 | [6] 0.003 | [7] 0.022 | [8] 0.005 | [9] 0.041 | [10] 0.048 | Nexturastat A -0.014 | vemurafenib 0.056 | [11] 0.017 | [12] -0.112 | givinostat -0.03 | barasertib -0.052

ASPM (UniProt Q8IZT6)
inactive: IRAK-1-4 Inhibitor I -0.034 | ibrutinib -0.006 | [1] -0.012 | ralimetinib -0.001 | [2] -0.081 | [3] 0.079 | [4] 0.03 | pinometostat -0.071 | [5] -0.2 | [6] 0.083 | [7] -0.031 | [8] -0.027 | [9] -0.003 | [10] 0.021 | Nexturastat A -0.128 | vemurafenib 0.005 | [11] 0 | [12] 0.063 | givinostat -0.084 | barasertib 0.026

The listing continues.

ATPAF2 (UniProt Q8N5M1)
inactive: IRAK-1-4 Inhibitor I -0.005 | ibrutinib -0.011 | [1] 0.029 | ralimetinib -0.053 | [2] 0.036 | [3] 0.005 | [4] -0.062 | pinometostat -0.029 | [5] 0 | [6] -0.059 | [7] -0.033 | [8] 0.001 | [9] -0.059 | [10] -0.026 | Nexturastat A -0.156 | vemurafenib -0.065 | [11] 0 | [12] -0.043 | givinostat 0.017 | barasertib -0.007

— the supplement of paper PMC10849652
